Measurements as given in PubChem BioAssay AID624291 (National Center for Advancing Translational Sciences (NCATS), 2012).
The whole screen tested about 350,000 compounds, of which about 220 (0.063%) were called active. This list was built around the results that the source calls inconclusive (neither active nor inactive); the mix of calls is not that of the screen. Calls follow the shape of the dose curve; as a rule, active = well fitted activation curve with a large enough effect; inconclusive = small, poorly fitted or top-dose-only effect; inactive = no such curve, though single readings can be large or run the other way. Where the call is inconclusive, the potency comes from a doubtful curve fit.

Assay: qHTS for Activators of Integrin-Mediated Alleviation for Muscular Dystrophy; also: nearly all actives have a fitted effect of over 60% in size;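 as to activation: 100% = response of the positive control SU9516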
Conditions: alpha7betagal myoblasts, beta-gal FDG fluorescence, 48 h; activation: at 38.3 µM (top of the series)
Method in brief: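 alpha7betagal+/- myoblasts (passage 13, 250/well) treated 48 h at 37C with compounds at 1:260 dilution of DMSO stock. Lysed, then beta-galactosidase activity read as FDG fluorescence (ex 480/em 540) after 30 min, with pre-read for autofluorescence.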
Potency is read from the fitted curve at half-maximal effect.

| Compound | activation | Potency |
| --- | --- | --- |
| Cc1ccccc1Sc1ncnc2onc(C)c12 | inactive: -41.6% |  |
| Cc1ccnc(SCc2cn3c(C)cccc3n2)n1 | inactive: 21.2% |  |
| O=C(NCCc1ccccc1)C(=O)NCC1OCCCN1S(=O)(=O)c1cc(F)ccc1F (configuration not stated) |  | inconclusive: 11.2 µM [activator, partial curve, poor fit] |
| COc1cccc(NC(=O)Nc2ccc(C)c(Cl)c2)c1 | inactive: 16.4% |  |
| COc1ccc(N2CCN(C(=S)Nc3ccc(OC)cc3OC)CC2)cc1 |  | inconclusive: 31.6 µM [activator, partial curve, poor fit] |
| c1ccc(C[C@H]2CNCCN2CCc2cccc3ccccc23)cc1 | inactive: -34.4% |  |
| Cn1c(=O)c2c(ncn2CC(=O)N2CCN(C(=O)c3ccco3)CC2)n(C)c1=O |  | inconclusive: 11.2 µM [activator, partial curve, poor fit] |
| Cc1cc(C)nc(NC(=O)CSc2nn(-c3ccccc3)c(=S)s2)n1 |  | inconclusive: 10 µM [activator, single point] |
| O=[N+]([O-])c1cccc(S(=O)(=O)N2CCN(S(=O)(=O)N3CCOCC3)CC2)c1 |  | active: 10 µM |
| CCCn1c(SCc2ccc(C(=O)OC)o2)nc2ccccc2c1=O |  | inconclusive: 3.16 µM [activator, single point] |
| CCOC(=O)C1CCN(Cc2cc(=O)oc3cc(C)ccc23)CC1 |  | inconclusive: 28.2 µM [activator, single point] |
| COc1ccc(C2CC(c3ccc([N+](=O)[O-])cc3)=NN2C(C)=O)cc1 (configuration not stated) |  | inconclusive: 2.82 µM [activator, partial curve, poor fit] |
| O=C(NC(=S)NC1CCN(Cc2ccccc2)CC1)c1ccc(F)cc1 |  | inconclusive: 5.01 µM [activator, single point] |
| O=C(O)c1cc(N/N=C/c2ccc(-c3ccccc3)cc2)ccc1Cl |  | inconclusive: 5.01 µM [activator, single point] |
| COc1cc(C=O)ccc1OCc1ccc(Cl)nc1 |  | inconclusive: 28.2 µM [activator, single point] |
| CCOc1cc(/C=C2\COc3ccccc3C2=O)cc(Br)c1OCC(=O)N(C)C | inactive: -82% |  |
| CN(/N=C/C=C/c1ccccc1)C1=NS(=O)(=O)c2ccccc21 |  | inconclusive: 2.82 µM [activator, partial curve, poor fit] |
| COc1cccc(NC(=O)CCN2C(=O)c3cccc([N+](=O)[O-])c3C2=O)c1 |  | inconclusive: 5.01 µM [activator, single point] |
| O=C1c2ccc(Oc3ccc([N+](=O)[O-])cc3)cc2C(=O)N1CCCO |  | inconclusive: 1.78 µM [activator, full curve] |
| COc1ccc(NC(=O)CSc2nnnn2C2CCCC2)c(OC)c1 |  | inconclusive: 2.51 µM [activator, full curve, poor fit] |
| O=C(CCN1C(=O)S/C(=C\c2ccc(F)cc2)C1=O)Nc1ccc(O)cc1C(=O)O |  | inconclusive: 11.2 µM [activator, single point] |
| Cc1nc2nc(SCC(=O)O)nn2c(C)c1Cc1c(F)cccc1Cl |  | inconclusive: 28.2 µM [activator, single point] |
| COc1ccc(OC)c(CNC(=O)C2CCC(=O)N2C(C)C)c1 (configuration not stated) |  | inconclusive: 3.16 µM [activator, single point] |

Retrieved by structure from the entries so far (six):

| Compound | activation | Potency |
| --- | --- | --- |
| CCOc1cc(/C=C2\COc3ccccc3C2=O)cc(Br)c1OCC(=O)N(C)C | inactive: -82% |  |
| Cc1cc(C)nc(NC(=O)CSc2nn(-c3ccccc3)c(=S)s2)n1 |  | inconclusive: 10 µM [activator, single point] |
| COc1cccc(NC(=O)Nc2ccc(C)c(Cl)c2)c1 | inactive: 16.4% |  |
| CCCn1c(SCc2ccc(C(=O)OC)o2)nc2ccccc2c1=O |  | inconclusive: 3.16 µM [activator, single point] |
| COc1ccc(NC(=O)CSc2nnnn2C2CCCC2)c(OC)c1 |  | inconclusive: 2.51 µM [activator, full curve, poor fit] |
| O=[N+]([O-])c1cccc(S(=O)(=O)N2CCN(S(=O)(=O)N3CCOCC3)CC2)c1 |  | active: 10 µM |

The list continues.

| Compound | activation | Potency |
| --- | --- | --- |
| O=S(=O)(/N=C(/Nc1nc2ccccc2s1)c1ccccc1)c1ccccc1 |  | inconclusive: 28.2 µM [activator, single point] |
| c1ccc(-n2nnnc2OCCOc2nnnn2-c2ccccc2)cc1 |  | inconclusive: 3.55 µM [activator, partial curve, poor fit] |
| Cc1cc(C)c(C)c(OCC(O)CN2CCN(c3ccccn3)CC2)c1 (configuration not stated) | inactive: 0% |  |
| CC(C)C(=O)Nc1ccccc1-c1nc2ccccc2[nH]c1=O |  | inconclusive: 5.01 µM [activator, single point] |
| Cn1c2ccccc2c2nnc(SCC(N)=O)nc21 |  | inconclusive: 28.2 µM [activator, single point] |
| CC12CC3(C)CC(C)(C1)CC(C(=O)NCc1ccccn1)(C2)C3 |  | inconclusive: 5.01 µM [activator, single point] |
| CCN(CC)S(=O)(=O)c1ccc(N2CCOCC2)c(NC(=O)COc2ccc(Cl)cc2)c1 |  | inconclusive: 2.82 µM [activator, single point] |
| CN(C)c1ccc(C(=S)N2CCCCC2)cc1Br | inactive: -9.44% |  |
| CC(=O)Nc1nc(CC(C)C)cc2c1c(=O)oc1ccccc12 |  | inconclusive: 28.2 µM [activator, partial curve, poor fit] |
| CNC(=O)/C(=C\c1cccc(Oc2ccccc2)c1)NC(=O)c1ccccc1 |  | active: 11.2 µM |
| CC1C(=O)C(C)(C)C(=O)OC1c1ccccc1 (configuration not stated) |  | inconclusive: 2 µM [activator, partial curve, poor fit] |
| COc1ccc(C(NCC(=O)Nc2c(C)cccc2C)c2ccccc2)cc1 (configuration not stated) |  | inconclusive: 28.2 µM [activator, single point] |
| COc1ccc(NC(=O)CSc2nc(SC)ns2)cc1 | inactive: -20.9% |  |
| CCOc1nc2cnccc2n(CC(=O)Nc2ccc(C)c(C)c2)c1=O |  | inconclusive: 22.4 µM [activator, single point] |
| COc1cccc(/C=N/Nc2nc(N3CCCC3)nc(N3CCCC3)n2)c1O | inactive: -3.01% |  |
| CC(C)(O)[C@H]1Cc2cc3ccc(=O)oc3cc2O1 |  | inconclusive: 1.12 µM [activator, partial curve, poor fit] |
| COc1ccc(Cl)cc1NC(=O)CN(C)CC(=O)Nc1ccc(Br)cc1 | inactive: 24% |  |
| CCCCN(C(=O)CCC(=O)Nc1cc(C)on1)C(C(=O)NC1CCCC1)c1cccc(OC)c1 (configuration not stated) |  | inconclusive: 2.51 µM [activator, single point] |
| CCC(C)NS(=O)(=O)c1cc2c3c(c1)CCC(=O)N3CCC2 (configuration not stated) |  | inconclusive: 14.1 µM [activator, single point] |
| CC(Oc1ccc(/C=N/NC(=O)Cc2cccc3ccccc23)cc1)C(=O)O (configuration not stated) |  | inconclusive: 5.01 µM [activator, single point] |
| O=[N+]([O-])c1ccc(CSc2ccc(S(=O)(=O)N3CCCCCC3)cn2)cc1 |  | inconclusive: 11.2 µM [activator, partial curve, poor fit] |
| CCN1/C(=C/C(C)=C/c2sc3ccccc3[n+]2CC)Sc2ccccc21 | inconclusive: -67.8% [activator] |  |
| O=C(COC(=O)C1CC2CCCC(C1)C2=O)NC(=O)c1ccc(OC(F)F)cc1 (configuration not stated) |  | inconclusive: 5.01 µM [activator, single point] |

| Compound | activation | Potency |
| --- | --- | --- |
| COc1ccc(NS(=O)(=O)c2ccc(NS(C)(=O)=O)cc2)cc1 |  | inconclusive: 11.2 µM [activator, partial curve, poor fit] |
| CCC1CN(C(=O)N2CCC(C(=O)Nc3ccccc3F)CC2)c2ccccc2O1 (configuration not stated) |  | inconclusive: 5.01 µM [activator, single point] |
| Cc1cccc(Nc2ccc3nonc3c2[N+](=O)[O-])c1C |  | inconclusive: 22.4 µM [activator, single point] |
| O=C(NCCSc1c(-c2ccccc2)[nH]c2ccccc12)c1cc2ccccc2oc1=O | inactive: 3.77% |  |
| Cc1cc(C)cc(NC(=O)c2cc3c(=O)n4ccccc4nc3s2)c1 |  | inconclusive: 2.82 µM [activator, single point] |
| Cc1cc(C)nc(SCc2ccc(C(=O)N/N=C/c3ccc(C(=O)O)cc3)cc2)n1 | inactive: 5.05% |  |
| Cc1ccnc(NCc2cc(Cl)cc(Cl)c2O)c1 | inactive: -20.1% |  |
| CCC(=O)Nc1cccc(-c2cn3cccc(C)c3n2)c1 |  | inconclusive: 2.51 µM [activator, partial curve, poor fit] |
| O=C(Nc1ccc(OC(=O)c2ccco2)cc1)c1ccco1 | inactive: 1.59% |  |
| Cc1ccc(NC(=O)CN2CCN(C)CC2)cc1Br |  | inconclusive: 3.55 µM [activator, single point] |
| Cc1cccc(C(=O)O/N=C(\N)c2ccc(Cl)cc2)c1 |  | inconclusive: 5.01 µM [activator, single point] |
| O=C1c2sc3nc4ccccc4n3c2C(=O)N1c1ccccc1Cl | inactive: 2.97% |  |
| C/C(=N\NC(=O)Cc1ccc(O)cc1)c1cccnc1 |  | inconclusive: 20 µM [activator, single point] |
| O=C(Nc1ccccc1)Nc1ccc2ccccc2n1 |  | inconclusive: 2.82 µM [activator, partial curve, poor fit] |
| CCNC(=O)CC1C(=O)N(c2ccc(OC)cc2)C(=O)N1CCOC (configuration not stated) |  | inconclusive: 3.55 µM [activator, single point] |
| OCCNCC12CC3CC(CC(C3)C1)C2 |  | inconclusive: 5.01 µM [activator, single point] |
| Cc1ccc(S(=O)(=O)NN2C(=O)c3ccccc3NC2c2ccccc2F)cc1 (configuration not stated) |  | inconclusive: 11.2 µM [activator, partial curve, poor fit] |
| CCCC(=O)Nc1c2c(nn1-c1cccc(C)c1C)CS(=O)(=O)C2 |  | inconclusive: 3.16 µM [activator, single point] |
| NS(=O)(=O)c1ccc(-c2ccc(/C=N/NC(=O)c3ccc([N+](=O)[O-])cc3)o2)cc1 |  | inconclusive: 4.47 µM [activator, single point] |
| Clc1ccccc1-c1nc(-c2cccnc2)no1 |  | inconclusive: 12.6 µM [activator, partial curve, poor fit] |
| O=C(/C=C/c1cccc(F)c1)NCCCn1ccnc1 |  | inconclusive: 7.94 µM [activator, partial curve, poor fit] |
